Test results from article doi:10.1101/2023.04.24.538136.
Results are given in words; binding and its absence hold for the method and conditions named. In cells and extracts the contact can be indirect. Some binding calls cover weakened binding; strength is not graded here.

By UniProt entry, the sequences of proteins in these tests, tags left out. Where a name states a change or a piece, a line headed by the entry shows the natural chain unless it says otherwise. Residues count along the entry.
SPEGα (Q62407, residues 855-3262): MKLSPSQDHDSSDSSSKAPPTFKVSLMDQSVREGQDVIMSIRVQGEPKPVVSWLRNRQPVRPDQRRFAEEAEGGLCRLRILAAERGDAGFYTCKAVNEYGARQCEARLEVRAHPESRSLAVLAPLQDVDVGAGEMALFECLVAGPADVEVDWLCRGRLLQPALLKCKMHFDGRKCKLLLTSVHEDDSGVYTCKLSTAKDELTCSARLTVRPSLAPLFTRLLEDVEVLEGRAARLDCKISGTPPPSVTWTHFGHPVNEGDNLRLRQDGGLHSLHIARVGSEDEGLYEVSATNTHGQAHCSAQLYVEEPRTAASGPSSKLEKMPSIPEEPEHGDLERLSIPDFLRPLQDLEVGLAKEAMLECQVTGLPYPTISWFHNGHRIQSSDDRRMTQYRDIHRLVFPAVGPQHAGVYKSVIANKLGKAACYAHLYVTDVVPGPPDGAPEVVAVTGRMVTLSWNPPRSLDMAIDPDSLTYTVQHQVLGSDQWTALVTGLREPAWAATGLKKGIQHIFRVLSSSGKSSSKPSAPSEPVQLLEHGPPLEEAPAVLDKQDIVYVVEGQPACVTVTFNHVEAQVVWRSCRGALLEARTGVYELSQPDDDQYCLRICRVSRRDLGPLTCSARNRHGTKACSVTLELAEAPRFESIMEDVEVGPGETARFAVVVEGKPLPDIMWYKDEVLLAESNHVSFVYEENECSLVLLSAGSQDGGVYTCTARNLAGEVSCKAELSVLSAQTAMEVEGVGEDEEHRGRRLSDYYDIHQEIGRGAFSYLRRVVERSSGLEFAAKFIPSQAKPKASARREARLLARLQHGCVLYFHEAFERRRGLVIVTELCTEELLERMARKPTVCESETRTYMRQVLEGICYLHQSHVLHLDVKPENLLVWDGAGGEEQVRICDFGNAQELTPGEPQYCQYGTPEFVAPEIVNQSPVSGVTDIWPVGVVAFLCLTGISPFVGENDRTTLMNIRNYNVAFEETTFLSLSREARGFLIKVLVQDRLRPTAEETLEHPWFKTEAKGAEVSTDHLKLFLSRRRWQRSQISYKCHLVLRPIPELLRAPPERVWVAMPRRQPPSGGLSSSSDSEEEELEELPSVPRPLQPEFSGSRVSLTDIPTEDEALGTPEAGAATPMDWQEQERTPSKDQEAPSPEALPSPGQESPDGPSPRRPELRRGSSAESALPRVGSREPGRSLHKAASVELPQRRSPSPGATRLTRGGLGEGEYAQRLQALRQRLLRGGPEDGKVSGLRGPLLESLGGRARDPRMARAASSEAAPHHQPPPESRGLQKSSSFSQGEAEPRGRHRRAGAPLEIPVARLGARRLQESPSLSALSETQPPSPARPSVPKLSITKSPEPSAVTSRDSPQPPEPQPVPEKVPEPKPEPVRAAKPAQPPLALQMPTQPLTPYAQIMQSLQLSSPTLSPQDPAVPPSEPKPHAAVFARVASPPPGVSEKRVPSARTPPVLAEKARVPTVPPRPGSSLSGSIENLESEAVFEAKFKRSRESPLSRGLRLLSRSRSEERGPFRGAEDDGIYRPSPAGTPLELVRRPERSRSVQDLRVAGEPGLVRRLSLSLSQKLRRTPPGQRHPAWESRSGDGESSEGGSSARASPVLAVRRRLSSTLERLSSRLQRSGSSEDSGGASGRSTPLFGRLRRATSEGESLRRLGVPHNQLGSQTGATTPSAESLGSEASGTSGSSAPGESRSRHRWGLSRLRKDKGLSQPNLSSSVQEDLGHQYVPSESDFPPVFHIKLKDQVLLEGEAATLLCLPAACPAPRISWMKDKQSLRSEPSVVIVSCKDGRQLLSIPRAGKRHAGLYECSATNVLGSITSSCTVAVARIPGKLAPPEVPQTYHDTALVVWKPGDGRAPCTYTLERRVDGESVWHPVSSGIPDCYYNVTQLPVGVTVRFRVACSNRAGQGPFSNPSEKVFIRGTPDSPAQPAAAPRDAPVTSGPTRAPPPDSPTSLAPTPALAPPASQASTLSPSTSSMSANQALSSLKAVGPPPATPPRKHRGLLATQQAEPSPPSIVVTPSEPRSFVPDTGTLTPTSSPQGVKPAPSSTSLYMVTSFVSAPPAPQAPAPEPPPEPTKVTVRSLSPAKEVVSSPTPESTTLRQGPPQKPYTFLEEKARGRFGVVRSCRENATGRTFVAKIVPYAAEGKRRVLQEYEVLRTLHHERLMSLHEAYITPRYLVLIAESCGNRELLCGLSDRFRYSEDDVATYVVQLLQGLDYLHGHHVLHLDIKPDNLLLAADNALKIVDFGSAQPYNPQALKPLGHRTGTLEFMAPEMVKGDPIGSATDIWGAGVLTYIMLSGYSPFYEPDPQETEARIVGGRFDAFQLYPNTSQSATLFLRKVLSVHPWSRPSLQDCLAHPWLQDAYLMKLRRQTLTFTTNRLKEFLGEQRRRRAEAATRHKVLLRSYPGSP

Columns and labels:
[1] = molecular target: T1, fibronectin type III and SPRY domain-containing protein 2 (mouse (endogenous in skeletal muscle)) (UniProt Q8BZ52); experiment: co-IP
T1 sequence: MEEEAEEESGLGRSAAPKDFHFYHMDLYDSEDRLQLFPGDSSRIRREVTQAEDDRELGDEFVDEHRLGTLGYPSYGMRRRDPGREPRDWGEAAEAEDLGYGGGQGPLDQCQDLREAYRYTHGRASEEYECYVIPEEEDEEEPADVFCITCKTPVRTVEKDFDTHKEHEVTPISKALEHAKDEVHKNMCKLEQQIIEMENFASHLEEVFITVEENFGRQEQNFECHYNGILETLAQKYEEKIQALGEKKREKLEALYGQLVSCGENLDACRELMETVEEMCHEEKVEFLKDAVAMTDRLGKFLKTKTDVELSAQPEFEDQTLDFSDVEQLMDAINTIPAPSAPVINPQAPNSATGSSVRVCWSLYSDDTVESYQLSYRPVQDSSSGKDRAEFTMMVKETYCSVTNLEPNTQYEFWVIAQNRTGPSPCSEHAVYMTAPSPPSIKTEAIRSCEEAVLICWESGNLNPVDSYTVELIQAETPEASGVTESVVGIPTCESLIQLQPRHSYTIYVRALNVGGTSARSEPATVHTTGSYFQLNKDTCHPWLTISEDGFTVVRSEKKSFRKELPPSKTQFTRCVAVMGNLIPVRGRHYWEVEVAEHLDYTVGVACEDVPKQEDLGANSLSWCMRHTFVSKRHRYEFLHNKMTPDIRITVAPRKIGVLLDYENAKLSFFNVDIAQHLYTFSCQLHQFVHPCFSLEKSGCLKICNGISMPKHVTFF

[2] = molecular target: ryanodine receptor 1 (mouse (endogenous in skeletal muscle)) (UniProt E9PZQ0); experiment: co-IP

| binding [1] | binding [2] | Substance |
| --- | --- | --- |
| binds |  | SPEGβ (from UniProt Q62407-1 1-3262) |
| binds | binds | SPEGα (from UniProt Q62407-4 1-2408) |
